No constants are given. Whether binding was seen depends on the method and setting. Some binding calls cover weakened binding; strength is not graded here.

Sequences of proteins named here, by UniProt entry; tags and fusion partners are left off. Residues count along the entry.
UniProt P16234, residues 24-528: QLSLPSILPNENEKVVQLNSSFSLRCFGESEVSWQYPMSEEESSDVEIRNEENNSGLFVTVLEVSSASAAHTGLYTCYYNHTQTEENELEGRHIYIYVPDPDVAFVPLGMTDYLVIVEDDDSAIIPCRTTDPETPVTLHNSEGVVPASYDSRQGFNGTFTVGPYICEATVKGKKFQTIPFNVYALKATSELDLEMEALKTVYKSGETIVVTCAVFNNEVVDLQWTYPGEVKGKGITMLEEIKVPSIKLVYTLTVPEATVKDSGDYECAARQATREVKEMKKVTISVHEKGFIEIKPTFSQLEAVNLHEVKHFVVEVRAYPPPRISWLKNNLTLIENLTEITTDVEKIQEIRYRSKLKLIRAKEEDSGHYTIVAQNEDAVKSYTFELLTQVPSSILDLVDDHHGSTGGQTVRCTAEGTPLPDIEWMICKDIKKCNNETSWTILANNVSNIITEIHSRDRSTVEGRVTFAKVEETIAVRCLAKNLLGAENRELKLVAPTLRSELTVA
UniProt P01127, residues 82-190: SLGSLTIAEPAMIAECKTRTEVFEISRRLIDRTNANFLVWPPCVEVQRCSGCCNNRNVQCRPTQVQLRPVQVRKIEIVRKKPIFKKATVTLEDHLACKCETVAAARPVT

Among the data in patent US20230050038A1 are binding values, retold here.

For test [1], the target named is VEGFR2 (recombinant, surface plasmon resonance) (UniProt P35968). The test is described as follows: surface plasmon resonance.
In test [2] the target is PDGFRα soluble extracellular domain (UniProt P16234). In words: yeast surface display, soluble receptor ectodomain.

For the substance “PDGF-BB (recombinant, wild type) (from UniProt P01127 82-190) (ligand)”, in test [1], the binding result was “binds”.
The same measure, in the same setting: as for “PDGF-AB (recombinant) (from UniProt P04085 87-211; P01127 82-190) (ligand)”, the entry is “binds”.
Regarding “PDGF-A mature polypeptide, displayed on the yeast surface (from UniProt P04085 87-211) (ligand)”, in test [2], the binding result is given as “binds”.
Regarding “PDGF-AA (recombinant) (from UniProt P04085 87-211) (ligand)”, the binding result in test [1] was “binds”.
